The target in this experiment is Recombinant Xyn11B (mature endo-1,4-β-xylanase of glycoside hydrolase family 11 from Humicola insolens Y1) (Humicola insolens Y1). Kind of experiment: SEC; purified recombinant Xyn11B; column and conditions not told; both purified. On the technique in general: SEC sorts molecules by how far they enter the pores of the column.

Amino acid sequences for entries named in this document (tags omitted). Residues count along the entry.
UniProt A0A0B5JC15, residues 20-291: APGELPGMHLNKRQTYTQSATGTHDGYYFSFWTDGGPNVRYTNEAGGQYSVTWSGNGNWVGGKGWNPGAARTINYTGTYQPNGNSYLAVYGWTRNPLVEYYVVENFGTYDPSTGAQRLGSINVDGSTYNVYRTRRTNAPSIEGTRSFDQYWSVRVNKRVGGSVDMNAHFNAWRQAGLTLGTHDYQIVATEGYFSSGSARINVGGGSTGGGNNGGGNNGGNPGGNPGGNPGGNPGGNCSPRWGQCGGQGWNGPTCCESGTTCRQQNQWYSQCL

Results are given in words; binding and its absence hold for the method and conditions named.

Regarding “Recombinant Xyn11B (mature endo-1,4-β-xylanase of glycoside hydrolase family 11 from Humicola insolens Y1) (from UniProt A0A0B5JC15 20-291) (enzyme)”, the binding result was “no binding”.

The values are drawn from publication PMC4299769.
